According to patent US9855256B2, “Cyclooxygenase inhibitor and calcium channel antagonist compositions and methods for use in urological procedures” (Omeros Corporation, priority 2005, dated 2018):

Experiment: in vivo
Details: rat, 10 μM

COC(=O)C1=C(C)NC(C)=C(C(=O)OC)C1c1ccccc1[N+](=O)[O-] [Nifedipine, 1,4-dihydro-2,6-dimethyl-4-(2-nitrophenyl)-3,5-pyridinedicarboxylic acid dimethyl ester]
Cmax: 10.6 to 16 ng/mL
